Results are given in words; binding and its absence hold for the method and conditions named. Some binding calls cover weakened binding; strength is not graded here.
Target: vitronectin (UniProt P04004)
Assay: [^125I]-IGF-I bound to VN-coated wells in the presence of IGFBP

Sequences of proteins named here, by UniProt entry; tags and fusion partners are left off. Residues count along the entry.
UniProt P04004, residues 20-478: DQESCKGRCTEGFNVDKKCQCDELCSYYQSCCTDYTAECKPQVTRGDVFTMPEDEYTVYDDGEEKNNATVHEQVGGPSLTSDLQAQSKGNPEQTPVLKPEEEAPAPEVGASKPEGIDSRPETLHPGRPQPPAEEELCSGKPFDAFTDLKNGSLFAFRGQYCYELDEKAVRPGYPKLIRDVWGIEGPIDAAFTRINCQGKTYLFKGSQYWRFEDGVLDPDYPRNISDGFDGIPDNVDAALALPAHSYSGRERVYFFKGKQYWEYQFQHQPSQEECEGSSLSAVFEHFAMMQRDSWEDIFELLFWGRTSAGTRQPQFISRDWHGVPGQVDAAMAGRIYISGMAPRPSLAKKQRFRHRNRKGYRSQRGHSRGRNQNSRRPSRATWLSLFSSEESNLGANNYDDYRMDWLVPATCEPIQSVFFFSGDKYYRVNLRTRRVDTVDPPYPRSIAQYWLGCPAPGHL

B1: recombinant IGFBP-4 produced in mammalian cells (protein, UniProt P22692 22-258, looked up)
chain: DEAIHCPPCSEEKLARCRPPVGCEELVREPGCGCCATCALGLGMPCGVYTPRCGSGLRCYPPRGVEKPLHTLMHGQGVCMELAEIEAIQESLQPSDKDEGDHPNNSFSPCSAHDRRCLQKHFAKIRDRSTSGGKMKVNGAPREDARPVPQGSCQSELHRALERLAASQSRTHEDLYIIPIPNCDRNGNFHPKQCHPALDGQRGKCWCVDRKTGVKLPGGLEPKGELDCHQLADSFRE
With B1 the binding was “binds”.
